Results are given in words; binding and its absence hold for the method and conditions named. Binding seen in cells or lysates may run through a third protein. Here binding means that the protein was enriched with, or labelled near, the bait; the list need not be complete.
B1: Ski2 (protein, UniProt P35207 1-1287)
chain: MSEGFSSSSIQELYQSLKEITNNADVELFEDRITKLDFESTDEPKHANDIIKDRFLRPSNALPWSLLDMVQDVPHTSSPEDCSGKLDYKELLKVPDPINRTSYQFKRTGLEGKISGYKEEVDLKEVANANASNSLSITRSINHNQNSVRGSTAQLPFTPGGIPMKSVKTDSEQNGSSTMANATKLLHKDGQGLFDIPEGMNRGIKPMDSPAENEDQNGQFKELKQLNEIDNELDIRIEANEAKLKEEEKSAKSISEEIMEEATEETTADNADDAEIDELLPIGIDFGRTKPVSKSVPVKKEWAHVVDLNHKIENFDELIPNPARSWPFELDTFQKEAVYHLEQGDSVFVAAHTSAGKTVVAEYAIAMAHRNMTKTIYTSPIKALSNQKFRDFKETFDDVNIGLITGDVQINPDANCLIMTTEILRSMLYRGADLIRDVEFVIFDEVHYVNDQDRGVVWEEVIIMLPQHVKFILLSATVPNTYEFANWIGRTKQKNIYVISTPKRPVPLEINIWAKKELIPVINQNSEFLEANFRKHKEILNGESAKGAPSKTDNGRGGSTARGGRGGSNTRDGRGGRGNSTRGGANRGGSRGAGAIGSNKRKFFTQDGPSKKTWPEIVNYLRKRELLPMVVFVFSKKRCEEYADWLEGINFCNNKEKSQIHMFIEKSITRLKKEDRDLPQILKTRSLLERGIAVHHGGLLPIVKELIEILFSKGFIKVLFATETFAMGLNLPTRTVIFSSIRKHDGNGLRELTPGEFTQMAGRAGRRGLDSTGTVIVMAYNSPLSIATFKEVTMGVPTRLQSQFRLTYNMILNLLRIEALRVEEMIKYSFSENAKETLQPEHEKQIKVLQEELQTIEYKSCEICDNDIEKFLELMLAYKEATVNLMQEMVKSPSILHILKEGRLVAFRDPNDCLKLGFVFKVSLKDAVCVIMTFTKPYKLPNGEPNHLIYFPKADGYRRRNFPKFQKTDFYMEEVPVTAIEVITKRKFAAPLGKVIKKDVAALNEFNAETNNILDGKTLKEAINIEKQGLKIHQILLDRTNIRDEIFKLKSIKCPNLSQHIVPKFKAHVIKKKIEELYHLMSDQNLSLLPDYEKRLAVLKDTEFIDQNHNVLLKGRVACEINSGYELVLTELILDNFLGSFEPEEIVALLSVFVYEGKTREEEPPIVTPRLAKGKQRIEEIYKKMLCVFNTHQIPLTQDEAEFLDRKRFAMMNVVYEWARGLSFKEIMEMSPEAEGTVVRVITWLDEICREVKTASIIIGNSTLHMKMSRAQELIKRDIVFAASLYL
B2: Ski7 (protein, UniProt Q08491 1-747)
chain: MSLLEQLARKRIEKSKGLLSADQSHSTSKSASLLERLHKNRETKDNNAETKRKDLKTLLAKDKVKRSDFTPNQHSVSLSLKLSALKKSNSDLEKQGKSVTLDSKENELPTKRKSPDDKLNLEESWKAIKEMNHYCFLKNDPCINQTDDFAFTNFIIKDKKNSLSTSIPLSSQNSSFLSLKKHNNELLGIFVPCNLPKTTRKVAIENFNRPSPDDIIQSAQLNAFNEKLENLNIKSVPKAEKKEPINLQTPPTESIDIHSFIATHPLNLTCLFLGDTNAGKSTLLGHLLYDLNEISMSSMRELQKKSSNLDPSSSNSFKVILDNTKTERENGFSMFKKVIQVENDLLPPSSTLTLIDTPGSIKYFNKETLNSILTFDPEVYVLVIDCNYDSWEKSLDGPNNQIYEILKVISYLNKNSACKKHLIILLNKADLISWDKHRLEMIQSELNYVLKENFQWTDAEFQFIPCSGLLGSNLNKTENITKSKYKSEFDSINYVPEWYEGPTFFSQLYLLVEHNMNKIETTLEEPFVGTILQSSVLQPIAEINYVSLKVLINSGYIQSGQTIEIHTQYEDFHYYGIVSRMKNSKQILETNTKNNISVGLNPDILEVLVKIHNTEDFTKKQFHIRKGDIIIHSRKTNTLSPNLPNTLKLLALRLIKLSIQTHALSDPVDLGSELLLYHNLTHNAVKLVKILGTNDISINPNQSLIVEVEIIEPDFALNVIDSKYITNNIVLTSIDHKVIAVGRIACQ
B3: Ski3 (protein, UniProt P17883 1-1432)
chain: MSDIKQLLKEAKQELTNRDYEETIEISEKVLKLDPDNYFAHIFLGKALSSLPASNNVSSNRNLERATNHYVSAAKLVPDNLLAWKGLFLLFRTTEVVPDILSYDEYFDLCGQYADALLKQEQSQVELINDIKLLKKTHPDCQKAFYQHLKPGSLMAETIGRHLSTPQDALLNLIKILSNIETTEIGKTLSQNRLKLKASDPDYQIKLNSFSWEIIKNSEIDQLYNQLVNILADDQKRSEIENQWLEYRIKVLKSMPLDVKKDFFTKVKEMVEDMVLVNHQSLLAWQKYFEWTDYEDLDNMDAPLIIKYFKKFPKDPLAMILYSWLSSKLSKYDIKSLESANKPPEGHKKTEKETDIKDVDETNEDEVKDRVEDEVKDRVEDEVKDQDEEAKEDEEEDLDDIEIGLLEEEVVTVLTENIVKCKNNILAHRILCQYYLLTKEYEAALPYIKNGISLIAYNIKDLGVHLPLTKREFSLDLATVYTYVDAPKDHNAALKLYDNILSGDFSNIQAKMGKGIIFIERKNWKDAMTLLTQVHEQSPNNLEVLSELSWSKAHMGYMDEALAGLDTVIKGIKGMDLRSIDFRALNLWRQAKVYIMKHASINDAKQENVKCAFKLLIQSIKILDTFAPGFSTLGDIYCHYYKDHLRAFKCYFKAFDLDAGDYTAAKYITETYASKPNWQAASSIASRLIKGEKAKAELRSNNWPFRVVGIAHLEKQEESDSIEWFQSALRVDPNDVESWVGLGQAYHACGRIEASIKVFDKAIQLRPSHTFAQYFKAISLCDVGEYLESLDILEKVCQEAATEESFQIGLVEVLMRCSLDLYSQGFLLKSVSIAKDTIERIKIIISELKCENQQVWIYLSQVLRLFIWIESKVDTLPVESLVSIFENSQFSGSEEIDSVDNIKIDTLLDSTTDDNVSIACKFLILASKYSVSDQKFTDIAGTVRASYWYNIGISELTAFITLKEPQYRDAAIFAFKKSIQLQSNTSETWIGLGIATMDINFRVSQHCFIKATALEPKATNTWFNLAMLGLKKKDTEFAQQVLNKLQSLAPQDSSPWLGMALILEEQGDIIGSSKLFAHSFILSNGRSKAAQFMYAKNVLENHINNGDDERDIETVEKLTTASIALEQFFKKSPDSQFALQCALLTLERLHHYENANELANRLIGILEKKFEKTQDERELFNFAIIKGQFARIHLGLGNFELSIENADLSQGIISESSDEKSMKTKISNHICLGLSYFFLNDFDQTLNQFQELLSISKDSKHLVVLIAKVLYDVGESDTKEIALQELTEYIATSGADLLVTLTIAAMSILDDKREDLSIILEELKALPLSKQIIDKHKDAPYLIEEITKRLYRNDTGKQVWQRSAYFFPNNLKVWERLDKNIQRRIASNGQNKVTAEEMSKLYCESKNLRSIQRGMFLCPWNVTAVKALNECF
B4: Ski8 (protein, UniProt Q02793 1-397)
chain: MSKVFIATANAGKAHDADIFSVSACNSFTVSCSGDGYLKVWDNKLLDNENPKDKSYSHFVHKSGLHHVDVLQAIERDAFELCLVATTSFSGDLLFYRITREDETKKVIFEKLDLLDSDMKKHSFWALKWGASNDRLLSHRLVATDVKGTTYIWKFHPFADESNSLTLNWSPTLELQGTVESPMTPSQFATSVDISERGLIATGFNNGTVQISELSTLRPLYNFESQHSMINNSNSIRSVKFSPQGSLLAIAHDSNSFGCITLYETEFGERIGSLSVPTHSSQASLGEFAHSSWVMSLSFNDSGETLCSAGWDGKLRFWDVKTKERITTLNMHCDDIEIEEDILAVDEHGDSLAEPGVFDVKFLKKGWRSGMGADLNESLCCVCLDRSIRWFREAGGK

Assays:
Ska1-TAP (S. cerevisiae) = molecular target: T1, Ska1-TAP (S. cerevisiae) (UniProt P36103); experiment: affinity purification with mass spectrometry
T1 sequence: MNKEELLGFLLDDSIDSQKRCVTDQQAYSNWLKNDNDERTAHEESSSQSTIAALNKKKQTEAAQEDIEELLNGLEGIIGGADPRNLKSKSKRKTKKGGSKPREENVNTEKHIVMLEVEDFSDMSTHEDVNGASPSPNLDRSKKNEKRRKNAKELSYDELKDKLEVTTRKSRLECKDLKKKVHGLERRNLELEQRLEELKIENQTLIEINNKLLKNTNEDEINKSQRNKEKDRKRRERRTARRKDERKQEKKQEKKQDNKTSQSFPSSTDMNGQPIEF

Ski3-TAP (S. cerevisiae) = molecular target: T2, Ski3-TAP (S. cerevisiae) (UniProt P17883); experiment: affinity purification with mass spectrometry
T2 sequence: B3 chain

Binder | binding (Ska1-TAP (S. cerevisiae)) | binding (Ski3-TAP (S. cerevisiae))
B1 | binds | binds
B2 | binds | binds
B3 | binds | 
B4 | binds | 
